In the experiment the target is mCherry-HA-PKB (Akt/PKB) (UniProt P31749). The experiment in a line: FRET or BRET. In general terms: BRET reads energy transfer from a luciferase to a nearby fluorophore.

Chains of the proteins cited; added tags and fusions are not shown. Lines headed by an entry give the natural chain unless they say otherwise; changes in a name come on top.
UniProt P31749, whole entry: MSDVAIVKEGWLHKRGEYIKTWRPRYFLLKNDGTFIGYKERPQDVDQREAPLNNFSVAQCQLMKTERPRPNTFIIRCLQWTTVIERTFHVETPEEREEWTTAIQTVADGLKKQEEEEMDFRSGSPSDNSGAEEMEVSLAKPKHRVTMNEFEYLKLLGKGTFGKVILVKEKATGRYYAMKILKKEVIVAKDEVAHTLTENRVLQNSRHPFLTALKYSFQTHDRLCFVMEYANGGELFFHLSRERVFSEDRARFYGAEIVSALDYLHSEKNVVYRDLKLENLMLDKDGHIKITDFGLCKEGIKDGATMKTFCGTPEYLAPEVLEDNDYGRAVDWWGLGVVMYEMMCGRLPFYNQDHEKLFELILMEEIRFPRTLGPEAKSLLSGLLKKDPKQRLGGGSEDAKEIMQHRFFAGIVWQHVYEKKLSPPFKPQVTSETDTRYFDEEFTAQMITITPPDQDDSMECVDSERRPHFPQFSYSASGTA
UniProt O15530, whole entry, looked up, stated change not applied: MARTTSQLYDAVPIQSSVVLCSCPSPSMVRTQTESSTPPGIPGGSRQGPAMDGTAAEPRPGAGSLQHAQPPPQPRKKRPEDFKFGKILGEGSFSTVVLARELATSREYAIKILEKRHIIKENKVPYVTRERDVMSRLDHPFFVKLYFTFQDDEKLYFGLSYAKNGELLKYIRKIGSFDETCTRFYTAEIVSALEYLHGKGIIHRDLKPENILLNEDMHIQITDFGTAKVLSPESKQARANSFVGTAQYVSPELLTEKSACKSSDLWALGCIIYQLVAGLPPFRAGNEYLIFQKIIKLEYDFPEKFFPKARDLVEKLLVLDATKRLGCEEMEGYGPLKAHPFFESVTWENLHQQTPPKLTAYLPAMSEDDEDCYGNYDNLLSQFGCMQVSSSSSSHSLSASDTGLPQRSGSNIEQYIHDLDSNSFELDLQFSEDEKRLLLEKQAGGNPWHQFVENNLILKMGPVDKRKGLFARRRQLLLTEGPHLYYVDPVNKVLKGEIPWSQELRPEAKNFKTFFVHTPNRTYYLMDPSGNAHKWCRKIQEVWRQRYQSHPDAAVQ

Results are given in words; binding and its absence hold for the method and conditions named. In cells and extracts the contact can be indirect. Some results given as binding are weak or reduced against the parent protein; the word gives no strength.

Consider two substances from article doi:10.1101/566430.

“PDK1 K465A, full length (eGFP-myc-PDK1 K465A and HA-PDK1-mCherry K465A) (from UniProt O15530 1-556) (enzyme)”: the binding entry is “binds”.
With “PDK1 R466A/K467A, full length (eGFP-myc-PDK1 and HA-PDK1-mCherry, both R466A/K467A) (from UniProt O15530 1-556) (enzyme)”, the binding result is on record as “binds”.
